Source: paper PMC8674265

T1: ELM2 and SANT domain-containing protein 1 (ELMSAN1) (human (endogenous in HEK293T and Hela.cl1)) (UniProt Q6PJG2)
T1 sequence: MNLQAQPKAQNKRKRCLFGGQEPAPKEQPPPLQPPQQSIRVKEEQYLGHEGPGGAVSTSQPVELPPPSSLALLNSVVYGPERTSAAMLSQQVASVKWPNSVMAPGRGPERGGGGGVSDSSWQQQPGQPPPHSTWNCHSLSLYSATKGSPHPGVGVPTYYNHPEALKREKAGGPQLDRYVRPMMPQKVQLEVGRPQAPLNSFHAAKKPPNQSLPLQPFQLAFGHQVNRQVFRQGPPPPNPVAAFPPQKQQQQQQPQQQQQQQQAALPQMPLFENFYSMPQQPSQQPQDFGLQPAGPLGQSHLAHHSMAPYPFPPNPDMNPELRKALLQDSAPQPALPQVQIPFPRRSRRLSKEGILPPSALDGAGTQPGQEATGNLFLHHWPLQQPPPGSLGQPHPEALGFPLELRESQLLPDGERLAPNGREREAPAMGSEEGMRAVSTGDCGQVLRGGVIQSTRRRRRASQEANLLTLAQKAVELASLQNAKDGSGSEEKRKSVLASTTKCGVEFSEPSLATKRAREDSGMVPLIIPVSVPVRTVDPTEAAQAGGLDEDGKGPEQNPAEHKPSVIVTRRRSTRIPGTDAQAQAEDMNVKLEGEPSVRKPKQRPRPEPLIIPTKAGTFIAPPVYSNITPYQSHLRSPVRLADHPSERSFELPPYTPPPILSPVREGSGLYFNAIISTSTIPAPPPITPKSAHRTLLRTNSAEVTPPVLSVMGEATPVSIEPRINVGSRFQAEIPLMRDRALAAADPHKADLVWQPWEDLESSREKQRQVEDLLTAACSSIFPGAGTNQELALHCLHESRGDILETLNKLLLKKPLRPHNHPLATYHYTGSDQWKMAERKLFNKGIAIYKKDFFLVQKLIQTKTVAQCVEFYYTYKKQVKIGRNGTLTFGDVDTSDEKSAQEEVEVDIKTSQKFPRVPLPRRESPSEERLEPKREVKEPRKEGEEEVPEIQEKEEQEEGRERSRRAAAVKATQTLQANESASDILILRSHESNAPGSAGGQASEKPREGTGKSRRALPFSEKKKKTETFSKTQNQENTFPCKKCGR

B1: TOP3B (protein, UniProt O95985 1-862)
chain: MKTVLMVAEKPSLAQSIAKILSRGSLSSHKGLNGACSVHEYTGTFAGQPVRFKMTSVCGHVMTLDFLGKYNKWDKVDPAELFSQAPTEKKEANPKLNMVKFLQVEGRGCDYIVLWLDCDKEGENICFEVLDAVLPVMNKAHGGEKTVFRARFSSITDTDICNAMACLGEPDHNEALSVDARQELDLRIGCAFTRFQTKYFQGKYGDLDSSLISFGPCQTPTLGFCVERHDKIQSFKPETYWVLQAKVNTDKDRSLLLDWDRVRVFDREIAQMFLNMTKLEKEAQVEATSRKEKAKQRPLALNTVEMLRVASSSLGMGPQHAMQTAERLYTQGYISYPRTETTHYPENFDLKGSLRQQANHPYWADTVKRLLAEGINRPRKGHDAGDHPPITPMKSATEAELGGDAWRLYEYITRHFIATVSHDCKYLQSTISFRIGPELFTCSGKTVLSPGFTEVMPWQSVPLEESLPTCQRGDAFPVGEVKMLEKQTNPPDYLTEAELITLMEKHGIGTDASIPVHINNICQRNYVTVESGRRLKPTNLGIVLVHGYYKIDAELVLPTIRSAVEKQLNLIAQGKADYRQVLGHTLDVFKRKFHYFVDSIAGMDELMEVSFSPLAATGKPLSRCGKCHRFMKYIQAKPSRLHCSHCDETYTLPQNGTIKLYKELRCPLDDFELVLWSSGSRGKSYPLCPYCYNHPPFRDMKKGMGCNECTHPSCQHSLSMLGIGQCVECESGVLVLDPTSGPKWKVACNKCNVVAHCFENAHRVRVSADTCSVCEAALLDVDFNKAKSPLPGDETQHMGCVFCDPVFQELVELKHAASCHPMHRGGPGRRQGRGRGRARRPPGKPNPRRPKDKMSALAAYFV
B2: XRN2 (protein, UniProt Q9H0D6 1-950)
chain: MGVPAFFRWLSRKYPSIIVNCVEEKPKECNGVKIPVDASKPNPNDVEFDNLYLDMNGIIHPCTHPEDKPAPKNEDEMMVAIFEYIDRLFSIVRPRRLLYMAIDGVAPRAKMNQQRSRRFRASKEGMEAAVEKQRVREEILAKGGFLPPEEIKERFDSNCITPGTEFMDNLAKCLRYYIADRLNNDPGWKNLTVILSDASAPGEGEHKIMDYIRRQRAQPNHDPNTHHCLCGADADLIMLGLATHEPNFTIIREEFKPNKPKPCGLCNQFGHEVKDCEGLPREKKGKHDELADSLPCAEGEFIFLRLNVLREYLERELTMASLPFTFDVERSIDDWVFMCFFVGNDFLPHLPSLEIRENAIDRLVNIYKNVVHKTGGYLTESGYVNLQRVQMIMLAVGEVEDSIFKKRKDDEDSFRRRQKEKRKRMKRDQPAFTPSGILTPHALGSRNSPGSQVASNPRQAAYEMRMQNNSSPSISPNTSFTSDGSPSPLGGIKRKAEDSDSEPEPEDNVRLWEAGWKQRYYKNKFDVDAADEKFRRKVVQSYVEGLCWVLRYYYQGCASWKWYYPFHYAPFASDFEGIADMPSDFEKGTKPFKPLEQLMGVFPAASGNFLPPSWRKLMSDPDSSIIDFYPEDFAIDLNGKKYAWQGVALLPFVDERRLRAALEEVYPDLTPEETRRNSLGGDVLFVGKHHPLHDFILELYQTGSTEPVEVPPELCHGIQGKFSLDEEAILPDQIVCSPVPMLRDLTQNTVVSINFKDPQFAEDYIFKAVMLPGARKPAAVLKPSDWEKSSNGRQWKPQLGFNRDRRPVHLDQAAFRTLGHVMPRGSGTGIYSNAAPPPVTYQGNLYRPLLRGQAQIPKLMSNMRPQDSWRGPPPLFQQQRFDRGVGAEPLLPWNRMLQTQNAAFQPNQYQMLAGPGGYPPRRDDRGGRQGYPREGRKYPLPPPSGRYNWN
B3: FTST3 (protein, UniProt Q8IY81 1-847)
chain: MGKKGKVGKSRRDKFYHLAKETGYRSRSAFKLIQLNRRFQFLQKARALLDLCAAPGGWLQVAAKFMPVSSLIVGVDLVPIKPLPNVVTLQQDITTERCRQALRKELKTWKVDVVLNDGAPNVGASWVHDAYSQAHLTLMALRLACDFLARGGSFITKVFRSRDYQPLLWIFQQLFRRVQATKPQASRHESAEIFVVCQGFLAPDKVDSKFFDPKFAFKEVEVQAKTVTELVTKKKPKAEGYAEGDLTLYHRTSVTDFLRAANPVDFLSKASEIMVDDEELAQHPATTEDIRVCCQDIRVLGRKELRSLLNWRTKLRRYVAKKLKEQAKALDISLSSGEEDEGDEEDSTAGTTKQPSKEEEEEEEEEQLNQTLAEMKAQEVAELKRKKKKLLREQRKQRERVELKMDLPGVSIADEGETGMFSLSTIRGHQLLEEVTQGDMSAADTFLSDLPRDDIYVSDVEDDGDDTSLDSDLDPEELAGVRGHQGLRDQKRMRLTEVQDDKEEEEEENPLLVPLEEKAVLQEEQANLWFSKGSFAGIEDDADEALEISQAQLLFENRRKGRQQQQKQQLPQTPPSCLKTEIMSPLYQDEAPKGTEASSGTEAATGLEGEEKDGISDSDSSTSSEEEESWEPLRGKKRSRGPKSDDDGFEIVPIEDPAKHRILDPEGLALGAVIASSKKAKRDLIDNSFNRYTFNEDEGELPEWFVQEEKQHRIRQLPVGKKEVEHYRKRWREINARPIKKVAEAKARKKRRMLKRLEQTRKKAEAVVNTVDISEREKVAQLRSLYKKAGLGKEKRHVTYVVAKKGVGRKVRRPAGVRGHFKVVDSRMKKDQRAQQRKEQKKKHKRK
B4: SUV39H1 (protein, UniProt O43463 1-412)
chain: MAENLKGCSVCCKSSWNQLQDLCRLAKLSCPALGISKRNLYDFEVEYLCDYKKIREQEYYLVKWRGYPDSESTWEPRQNLKCVRILKQFHKDLERELLRRHHRSKTPRHLDPSLANYLVQKAKQRRALRRWEQELNAKRSHLGRITVENEVDLDGPPRAFVYINEYRVGEGITLNQVAVGCECQDCLWAPTGGCCPGASLHKFAYNDQGQVRLRAGLPIYECNSRCRCGYDCPNRVVQKGIRYDLCIFRTDDGRGWGVRTLEKIRKNSFVMEYVGEIITSEEAERRGQIYDRQGATYLFDLDYVEDVYTVDAAYYGNISHFVNHSCDPNLQVYNVFIDNLDERLPRIAFFATRTIRAGEELTFDYNMQVDPVDMESTRMDSNFGLAGLPGSPKKRVRIECKCGTESCRKYLF

target: T1, ELM2 and SANT domain-containing protein 1 (ELMSAN1) (human (endogenous in HEK293T and Hela.cl1)); assay: affinity purification with mass spectrometry; HEK293T nuclear extract precipitated with 5 µg rabbit anti-ELMSAN1 antibody and protein A magnetic beads, eluted with 0.5 M ammonium hydroxide, LC-MS/MS; controls water or normal rabbit IgG; enrichment by spectral counts and SAINT (FC-A > 1); four experiments

B1 was tested. Which binding did it give?
The binding was “binds”.

B2 was tested. Which binding did it give?
The binding was “binds”.

Which binding does the source give for B3 here?
The binding was “binds”.

For B4, which binding is on record?
The binding was “no binding”.

Results are given in words; binding and its absence hold for the method and conditions named. In cells and extracts the contact can be indirect. Here binding means that the protein was enriched with, or labelled near, the bait; the list need not be complete. No binding means not detected with the bait.
